Laboratory results from EP0464022B1, “INSULINOTROPIC HORMONE” (THE GENERAL HOSPITAL CORPORATION, priority 1989, dated 2000).
Entries after “also recorded” stand apart in the source; their conditions may differ. At least one peptide structure holds a part that was inferred or is arguable (an end, a ring closure or a residue). Some entries repeat one wording, which the source may state once for all of them.

How the values were obtained:
[1] = tested on: rat pancreas; assay: Pancreatic perfusion assay of insulinotropic activity (isolated perfused rat pancreas, insulin radioimmunoassay); type: in vivo
[2] = tested on: AtT-20 pituitary cells; assay: Corticotropin (ACTH) mRNA level in pituitary cell line; type: cell-based
[3] = tested on: insulinoma cell line RIN 1046-38; assay: cAMP formation in insulinoma cell line; type: cell-based, rat
[4] = tested on: rat islet glucagon-producing cell line 1056A; assay: Glucagon mRNA level in glucagon-producing islet cell line; type: cell-based
[5] = tested on: Rat insulinoma cells of cell line RIN-38; assay: Insulin in cell culture medium by radioimmunoassay; type: cell-based; conditions: for Insulin Produced: 5 x 10^-7M
[6] = tested on: RIN-38 insulinoma cells; assay: Gene transcription rates (nascent RNA transcripts in nuclei); type: cell-based, rat; conditions: 10^-7M; 4 hours
[7] = tested on: RINS-38 insulinoma cells; assay: Cellular cAMP levels (Table 2); type: cell-based, rat; set-up: cAMP: unit not given here; conditions: for cAMP: 10 minutes
Procedure: Cells were grown as described in Example 1, in […] culture dishes. Varying amounts of glucagon-like peptides were added to culture wells in triplicate. After permitting incubation for 10 minutes, the total cell media was examined for cAMP, and the concentration of cAMP was determined. Twenty microliters from each culture well was assayed.

[8] = tested on: GH4 pituitary cells; assay: Prolactin mRNA level in pituitary cell line; type: cell-based
[9] = tested on: Rat insulinoma cells of cell line RIN-38; assay: mRNA levels by Northern hybridization in insulinoma cells; type: cell-based
[10] = 10^-11 M, five minute perfusion
[11] = RIN 1046-38, 10^-10M to 10^-11M

CC[C@H](C)[C@H](NC(=O)[C@H](Cc1ccccc1)NC(=O)[C@H](CCC(=O)O)NC(=O)[C@H](CCCCN)NC(=O)[C@H](C)NC(=O)[C@H](C)NC(=O)[C@H](CCC(N)=O)NC(=O)CNC(=O)[C@H](CCC(=O)O)NC(=O)[C@H](CC(C)C)NC(=O)[C@H](Cc1ccc(O)cc1)NC(=O)[C@H](CO)NC(=O)[C@H](CO)NC(=O)[C@@H](NC(=O)[C@H](CC(=O)O)NC(=O)[C@H](CO)NC(=O)[C@@H](NC(=O)[C@H](Cc1ccccc1)NC(=O)[C@@H](NC(=O)CNC(=O)[C@H](CCC(=O)O)NC(=O)[C@H](C)NC(=O)[C@@H](N)Cc1c[nH]cn1)[C@@H](C)O)[C@@H](C)O)C(C)C)C(=O)N[C@@H](C)C(=O)N[C@@H](Cc1c[nH]c2ccccc12)C(=O)N[C@@H](CC(C)C)C(=O)N[C@H](C(=O)N[C@@H](CCCCN)C(=O)O)C(C)C [GLP-1 (7-34)]
Insulinotropic Activity [1, 10]: detectable insulinotropic activity

CC[C@H](C)[C@H](NC(=O)[C@H](Cc1ccccc1)NC(=O)[C@H](CCC(=O)O)NC(=O)[C@H](CCCCN)NC(=O)[C@H](C)NC(=O)[C@H](C)NC(=O)[C@H](CCC(N)=O)NC(=O)CNC(=O)[C@H](CCC(=O)O)NC(=O)[C@H](CC(C)C)NC(=O)[C@H](Cc1ccc(O)cc1)NC(=O)[C@H](CO)NC(=O)[C@H](CO)NC(=O)[C@@H](NC(=O)[C@H](CC(=O)O)NC(=O)[C@H](CO)NC(=O)[C@@H](NC(=O)[C@H](Cc1ccccc1)NC(=O)[C@@H](NC(=O)CNC(=O)[C@H](CCC(=O)O)NC(=O)[C@H](C)NC(=O)[C@@H](N)Cc1c[nH]cn1)[C@@H](C)O)[C@@H](C)O)C(C)C)C(=O)N[C@@H](C)C(=O)N[C@@H](Cc1c[nH]c2ccccc12)C(=O)N[C@@H](CC(C)C)C(=O)N[C@H](C(=O)N[C@@H](CCCCN)C(=O)NCC(=O)O)C(C)C [GLP-1 (7-35)]
Insulinotropic Activity [1, 10]: detectable insulinotropic activity

CC[C@H](C)[C@H](NC(=O)[C@H](Cc1ccccc1)NC(=O)[C@H](CCC(=O)O)NC(=O)[C@H](CCCCN)NC(=O)[C@H](C)NC(=O)[C@H](C)NC(=O)[C@H](CCC(N)=O)NC(=O)CNC(=O)[C@H](CCC(=O)O)NC(=O)[C@H](CC(C)C)NC(=O)[C@H](Cc1ccc(O)cc1)NC(=O)[C@H](CO)NC(=O)[C@H](CO)NC(=O)[C@@H](NC(=O)[C@H](CC(=O)O)NC(=O)[C@H](CO)NC(=O)[C@@H](NC(=O)[C@H](Cc1ccccc1)NC(=O)[C@@H](NC(=O)CNC(=O)[C@H](CCC(=O)O)NC(=O)[C@H](C)NC(=O)[C@@H](N)Cc1c[nH]cn1)[C@@H](C)O)[C@@H](C)O)C(C)C)C(=O)N[C@@H](C)C(=O)N[C@@H](Cc1c[nH]c2ccccc12)C(=O)N[C@@H](CC(C)C)C(=O)N[C@H](C(=O)N[C@@H](CCCCN)C(=O)NCC(=O)N[C@@H](CCCNC(=N)N)C(=O)NCC(=O)O)C(C)C [GLP-1 (7-37)]
effect on levels of corticotropin mRNA [2]: no effects | activity on cAMP levels ([3]; 50 pM): still active | increase of cAMP levels ([3]; 5 nM): at least 4 fold | effect on cAMP levels ([3]; 0.5 µM): increased cAMP levels | increase of cellular levels of cAMP ([3]; 10^-10M to 10^-11M): 5 fold | cAMP formation ([3]; IBMX 100 uM, peptide 10^-7 M, 10 minutes): 317±65 fmoles/10ul of cell extract | cAMP formation ([3]; IBMX 100 uM, peptide 10^-9 M, 10 minutes): 202±17 fmoles/10ul of cell extract | cAMP formation ([3]; IBMX 100 uM, peptide 10^-11 M, 10 minutes): 205±9 fmoles/10ul of cell extract | cAMP formation ([3]; IBMX 500 uM, peptide 10^-7 M, 10 minutes): 2114±421 fmoles/10ul of cell extract | cAMP formation ([3]; IBMX 500 uM, peptide 10^-9 M, 10 minutes): 927±75 fmoles/10ul of cell extract | cAMP formation ([3]; IBMX 500 uM, peptide 10^-11 M, 10 minutes): 501±49 fmoles/10ul of cell extract | effects (cAMP, insulin mRNA, insulin release) compared with glucagon ([3]; RIN 1046-38): more potent than those of glucagon | cAMP formation ([3]; peptide 10^-8 M, mean ± S.E.M. (n = 4)): 128 ± 10 f-mole/5 ul of cell extract/15 min exposure to peptide | effect on levels of glucagon mRNA [4]: no effects | Insulin Produced ([5]; 1 Hour): 381 µunits/ML | Insulin Produced ([5]; 24 Hours): 5,164 µunits/ML | insulin release [5, 11]: stimulated insulin release | rate of actin gene transcription [6]: no detectable effect | rate of insulin gene transcription [6]: increased the rate of insulin gene transcription | stimulation of cAMP levels ([7]; even at 10^-11M): capable of stimulating cAMP levels | cAMP ([7]; peptide 10^-6 M): 400 | cAMP ([7]; peptide 10^-7 M): 370 | cAMP ([7]; peptide 10^-8 M): 494 | cAMP ([7]; peptide 10^-9 M): 515 | cAMP ([7]; peptide 10^-10 M): 253 | cAMP ([7]; peptide 10^-11 M): 533 | effect on levels of prolactin mRNA [8]: no effects | increase in insulin mRNA levels, higher than control values ([9]; 24 hr, 25 mM glucose): 3 fold | increase of levels of insulin mRNA [9, 11]: 3 fold | effect on levels of actin mRNA ([9]; insulinoma cell line): negligible effects | effect on levels of angiotensinogen mRNA ([9]; insulinoma cell line): negligible effects | Insulin Produced ([1]; 5x10^-7M, 0 minutes (before peptide added)): 50 picograms/ml | Insulin Produced ([1]; 5x10^-7M, 1 minute): 6,600 picograms/ml | Insulin Produced ([1]; 5x10^-7M, 2 minutes): 4,700 picograms/ml | Insulin Produced ([1]; 5x10^-7M, 3 minutes): 1,700 picograms/ml | increase in serum insulin levels ([1]; 5 x 10^-8M): 21 fold | Insulin Produced ([1]; 5x10^-8M, 1 minute): 20,700 picograms/ml | Insulin Produced ([1]; 5x10^-8M, 2 minutes): 10,500 picograms/ml | Insulin Produced ([1]; 5x10^-8M, 3 minutes): 4,000 picograms/ml | increase in serum insulin levels ([1]; 5 x 10^-10M): 32 fold | Insulin Produced ([1]; 5x10^-10M, 1 minute): 7,400 picograms/ml | Insulin Produced ([1]; 5x10^-10M, 2 minutes): 1,800 picograms/ml | Insulin Produced ([1]; 5x10^-10M, 3 minutes): 760 picograms/ml | increase in insulin levels ([1]; 5 x 10^-11M): 15 fold | Insulin Produced ([1]; 5x10^-11M, 0 minutes (before peptide added)): 160 picograms/ml | Insulin Produced ([1]; 5x10^-11M, 1 minute): 2,400 picograms/ml | Insulin Produced ([1]; 5x10^-11M, 2 minutes): 1,700 picograms/ml | Insulin Produced ([1]; 5x10^-11M, 3 minutes): 1,900 picograms/ml | Insulin Produced ([1]; 5x10^-12M, 0 minutes (before peptide added)): 50 picograms/ml | Insulin Produced ([1]; 5x10^-12M, 1 minute): 50 picograms/ml | Insulin Produced ([1]; 5x10^-12M, 2 minutes): 50 picograms/ml | Insulin Produced ([1]; 5x10^-12M, 3 minutes): 98 picograms/ml | insulin release, peak ([1]; 10^-9 M, glucose 6.6 mM): 23.1 ± 1.3 ng/mL | pattern of insulin secretion ([1]; 10^-9 M, glucose 6.6 mM): biphasic pattern of insulin secretion | mean incremental release above control ([1]; 10^-9 M, perfusate glucose 6.6 mM): 4.7 ± 1.0 ng/mL | mean incremental release above control ([1]; 10^-9 M, perfusate glucose 16.7 mM): 22.8 ± 4.7 ng/mL | Insulinotropic Activity ([1]; 10^-11 M, 5 minute perfusion, time +1 minute): 4200 ± 784 | Insulinotropic Activity ([1]; 10^-11 M, 5 minute perfusion, time +2 minutes): 3280 ± 889 | Insulinotropic Activity ([1]; 10^-11 M, 5 minute perfusion, time +3 minutes): 2500 ± 505 | Insulinotropic Activity ([1]; 10^-11 M, 5 minute perfusion, time -1 minute): 1330 ± 280 | Insulinotropic Activity [1, 10]: detectable insulinotropic activity; also recorded: substantial insulinotropic activity | insulin release, peak ([1]; 10^-11 M, glucose 6.6 mM): 4.1 ± 1.4 ng/mL | mean insulin release ([1]; 10^-11 M, on a background of GLP-1 (8-37), P < 0.025, N=7): 1.30 ± 0.19 ng/mL | insulin secretion, base line ([1]; 10^-12 M experiment, glucose 6.6 mM, before stimulation): 0.8 ± 0.2 ng/mL | insulin secretion, peak ([1]; 10^-12 M, glucose 6.6 mM, P < 0.05): 1.6 ± 0.5 ng/mL | concentration as low as which insulin secretion is stimulated (insulinotropic effect) ([1]; isolated perfused pancreas): 10^-12 M | potency as secretagogue, 7-37 form compared with 7-36-amide ([1]; perfused rat pancreas): equally potent secretagogues
